From PubChem BioAssay AID2417 (National Center for Advancing Translational Sciences (NCATS), 2010)
Hit rate of the full screen: of about 140,000 compounds, about 4,300 (3.1%) were called active. This list was built around the results that the source calls inconclusive (neither active nor inactive); the mix of calls is not that of the screen.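 Rule for the calls: active = readout at or below -70, meaning at least 70% loss of cells showing the perinucleolar compartment, a nuclear body marking cancer cells; inconclusive = readout between -30 and a set limit; inactive = the rest.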

Assay: High Content Assay for Compounds that inhibit the Assembly of the Perinucleolar Compartment;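 note: plate controls were DMSO wells for no effect and camptothecin positive control wells for full effect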
Details: PC3M PTB-GFP, PNC prevalence imaging, 16 h; at 10 µM; hits give low values
In short: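 PC3M cells stably expressing PTB-GFP, 750–1000 cells/well, treated 16 h at 37 °C with compound (23 nl of library stock), in duplicate. After paraformaldehyde fixation and Hoechst stain, imaged at 20x; PNC prevalence scored by image analysis.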

SMILES | activity change (PNC), negative = inhibition
CCCCOC(=O)Nc1cccc(C(C)=O)c1 | inconclusive: -46.2%
O=C(NC1CC2CCCC(C1)N2C1CC1)NC12CC3CC(CC(C3)C1)C2 (stereo unspecified) | inconclusive: -33.1%
CC(=O)c1cccc(NC(=O)c2ccc(N(Cc3ccccc3)S(C)(=O)=O)cc2)c1 | inconclusive: -34.9%
O=C(Nc1ccc(OCc2ccccc2)cc1)c1cccnc1 | active: -112%
COc1ccc(-c2nnc(SCCC(=O)O)n2C)cc1OC | inconclusive: -44%
COc1ccccc1C(=O)Nc1ccc(S(=O)(=O)N2CCOCC2)cc1 | inconclusive: -74.7%
Cc1csc2ncc(C(=O)Nc3ccccc3F)c(=O)n12 | inconclusive: -70.5%
COc1ccc(N2CCN(C(=O)CNC(=O)c3ccc(C(C)(C)C)cc3)CC2)cc1 | inconclusive: -46.6%
COc1cc(/C=C2\N=C(c3ccccc3)OC2=O)ccc1OCc1c(C)no[n+]1[O-] | inconclusive: -48.4%
Cc1[nH]n2c(=O)c3c(nc2c1-c1ccc(Cl)cc1)CCC3 | inconclusive: -56.6%
O=C1NC2(CCCc3ccccc32)C(=O)N1Cc1nnc(-c2ccccc2Br)o1 (stereo unspecified) | active: -82.8%
CC(C)Cc1cc(C(=O)N2N=C(C(F)F)CC2(O)C(F)F)c2ccccc2n1 (stereo unspecified) | inconclusive: -31.6%
O=C(Nc1cccc(Cl)c1)Nc1nnc(CC2=CCCCC2)s1 | inactive: -22.5%
CC(/C=N/NC(=O)c1nn(C)c(C)c1Br)=C\c1ccccc1 | inconclusive: -46.2%
Cc1ccc(C)c(N2CCN(C(=O)c3cc(S(=O)(=O)N4CCOCC4)ccc3F)CC2)c1 | inactive: 32%
Cc1cc(C(=O)NCCC2=CCCCC2)c(C)o1 | active: -80.8%
CC1CCCC(C)N1C(=O)c1cc(-c2cccs2)on1 (stereo unspecified) | inactive: 1.16%
COc1ccc(C2C=C(c3ccc(Br)s3)Nc3ncnn32)cc1OC (stereo unspecified) | inconclusive: -53.2%
O=C(CCl)N(c1ccccc1)C1CCS(=O)(=O)C1 (stereo unspecified) | inactive: 0.391%
O=S(=O)(Nc1cccc(-c2cn3ccsc3n2)c1)c1ccc(F)cc1 | inactive: -11.6%
Clc1cccc(N2CCN(CCNc3nc4ccccc4n4cnnc34)CC2)c1 | inconclusive: -50.6%
Cc1c(C(=O)Nc2cccc(C(F)(F)F)c2)oc2ccc(S(=O)(=O)N3CCOCC3)cc12 | inconclusive: -30.2%
Nc1nncn1C(=O)c1cccs1 | inconclusive: -53.8%

Gathered by group, the entries above containing a furan ring, fused or not (two)
SMILES | activity change (PNC), negative = inhibition
Cc1cc(C(=O)NCCC2=CCCCC2)c(C)o1 | active: -80.8%
Cc1c(C(=O)Nc2cccc(C(F)(F)F)c2)oc2ccc(S(=O)(=O)N3CCOCC3)cc12 | inconclusive: -30.2%

The list goes on.

SMILES | activity change (PNC), negative = inhibition
COc1ccc(C(=O)Nc2sc3c(c2C(=O)O)CC(C)(C)OC3)cc1 | inactive: 21.1%
Cc1ccc(Cn2ccc(=O)c(OCc3ccccc3)c2C)cc1 | inconclusive: -36%
COc1ccc2sc3ccccc3c(=O)c2c1OC | inactive: -18.8%
CC1=CC2=NC(=O)CC(C)(C(=O)N(CC(=O)NC(C)(C)C)Cc3cccs3)N2C=C1 (stereo unspecified) | inconclusive: -32.9%
CCOCc1nnc(NC(=O)COC)s1 | inconclusive: -39%
Cc1scc(C(=O)NNC(=S)NCC(C)C)c1C | inactive: -6.46%
CCN(CC)c1ccc(NC(=O)CN2CCN(c3ccc(F)cc3)CC2)cc1 | inconclusive: -79.1%
S=C(NCCc1ccccc1)NCC1CCCO1 (stereo unspecified) | inactive: -9.43%
CC(=O)c1cc(C#N)c(SCC(=O)O)nc1C | inconclusive: -30.9%
Cc1ccccc1-c1nn[nH]n1 | inconclusive: -59.8%
COc1ccc(/C(O)=C2/C(=O)C(=O)N(CCN3CCOCC3)C2c2cccnc2)cc1OC (stereo unspecified) | inactive: 212%
CCCc1cc(C(=O)Nc2ccc(C(C)=O)cc2)no1 | inconclusive: -56.2%
N#CC1=C(N)N2C(=C(C#N)C1c1ccccc1)Sc1ccccc12 (stereo unspecified) | inactive: 28.3%
O=C(CSCc1c(Cl)cccc1Cl)Nc1ccc2c(c1)OCCO2 | active: -83.4%
O=C(CCCC(=O)OCC(F)(F)C(F)F)Nc1nccs1 | inconclusive: -78.5%
CCCN(CCC)CCNC(=O)c1cc2c(C)nc3ccccc3c2o1 | inconclusive: -53.5%
O=C(O)CCC1=C2c3ccccc3CCN2C(=O)CC1 | inconclusive: -35.1%
CCOC(=O)N1CCC(N(CCN(C)C)C(=S)Nc2cccc(C)c2)CC1 | inconclusive: -39.3%
CCC(C)N=Cc1c(NCc2ccco2)nc2c(C)cccn2c1=O (stereo unspecified) | inconclusive: -53.2%
O=C(NCc1cccnc1)C1CCCN(Cc2cnn(-c3ccccc3)c2-n2cccc2)C1 (stereo unspecified) | inconclusive: -67.6%
Cc1ccc(-c2nn(-c3ccccc3)cc2CN(Cc2ccccc2)C(=O)c2ccco2)o1 | inconclusive: -31.2%
COCc1nnc(N)s1 | inconclusive: -74.8%
C(/CCc1ccccc1)=N\n1cnnc1 | active: -100%

2 of these compounds in a different format:
SMILES	activity change (PNC), negative = inhibition
Cc1scc(C(=O)NNC(=S)NCC(C)C)c1C	inactive: -6.46%
CCN(CC)c1ccc(NC(=O)CN2CCN(c3ccc(F)cc3)CC2)cc1	inconclusive: -79.1%
